Measurements reported in PubChem BioAssay AID1508597 (Cure First, 2020).
Shown is a random part of the about 2,100 reagents, in one setting of the screen. 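Calls flag viability under 80% in either arm, not effects specific to rucaparib; the reference for percent is not stated.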 A reagent listed more than once was tested more than once; the source does not tell the runs apart. Not given: the 100% reference.

Screen: 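Genes whose silencing sensitises or protects ovarian cancer cells against rucaparib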 (primary screen)
System: human ovarian carcinoma lines grown from tumours: OCI-P5x (papillary serous) and OCI-C5x (clear cell)
Reagents: siRNA pool against human genes, 1.25 pmol siRNA per well
Timing: 72 h or 96 h, depending on the cell culture
Treatment: rucaparib 20 µM (about IC30) or vehicle, present until read-out
Rucaparib or vehicle: Rucaparib
Cell line: OCI-P5x (serous)
Measured: 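Luminescent ATP-based viability assay read 72 or 96 h after transfection, depending on culture, given as normalised percent viability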
Scale: viability, normalised: higher = more viable cells remaining
Rule for the call: 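a well counts as a hit if its normalised viability is under 80 percent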
Calls: active = viability under 80%; inactive = viability 80% or more

With AICDA, technical replicate 1, what was measured?
viability, normalised (%): 85.7; activity call: inactive

How did the screen score AICDA, technical replicate 2?
viability, normalised (%): 70.8; activity call: active

For AICDA, technical replicate 3, what does the deposit list?
viability, normalised (%): 77; activity call: active

With PRKCA, technical replicate 1, how do the results read?
viability, normalised (%): 138; activity call: inactive

With PRKCA, technical replicate 1, what was measured?
viability, normalised (%): 40.5; activity call: active

For PRKCA, technical replicate 2, how do the results read?
viability, normalised (%): 49.9; activity call: active

Which result is listed for PRKCA, technical replicate 2?
viability, normalised (%): 157; activity call: inactive

For PRKCA, technical replicate 3, what does the deposit list?
viability, normalised (%): 145; activity call: inactive

What is on record for PRKCA, technical replicate 3?
viability, normalised (%): 60.3; activity call: active

Which result is listed for CLK4, technical replicate 1?
viability, normalised (%): 90; activity call: inactive

With CLK4, technical replicate 2, how do the results read?
viability, normalised (%): 95.8; activity call: inactive

How did the screen score CLK4, technical replicate 3?
viability, normalised (%): 83.8; activity call: inactive

With SMCHD1, technical replicate 1, how do the results read?
viability, normalised (%): 58.9; activity call: active

How did the screen score SMCHD1, technical replicate 2?
viability, normalised (%): 56.5; activity call: active

For SMCHD1, technical replicate 3, what does the deposit list?
viability, normalised (%): 54.3; activity call: active

Which result is listed for MARK3, technical replicate 1?
viability, normalised (%): 84.9; activity call: inactive

With MARK3, technical replicate 2, how do the results read?
viability, normalised (%): 87.2; activity call: inactive

What did the screen give for MARK3, technical replicate 3?
viability, normalised (%): 90.7; activity call: inactive

What is on record for PIN1, technical replicate 1?
viability, normalised (%): 78.8; activity call: active

Which result is listed for PIN1, technical replicate 2?
viability, normalised (%): 73.9; activity call: active

For PIN1, technical replicate 3, how do the results read?
viability, normalised (%): 73.6; activity call: active

How did the screen score UBTF, technical replicate 1?
viability, normalised (%): 51.2; activity call: active

What is on record for UBTF, technical replicate 2?
viability, normalised (%): 47.7; activity call: active

For UBTF, technical replicate 3, what does the deposit list?
viability, normalised (%): 74.6; activity call: active

For KPNA3, technical replicate 1, what does the deposit list?
viability, normalised (%): 87.2; activity call: inactive

What is on record for KPNA3, technical replicate 2?
viability, normalised (%): 88.4; activity call: inactive

For KPNA3, technical replicate 3, how do the results read?
viability, normalised (%): 73; activity call: active

Records listed so far whose target name starts with M or m (3):
MARK3, technical replicate 1: viability, normalised (%) = 84.9; activity call = inactive
MARK3, technical replicate 2: viability, normalised (%) = 87.2; activity call = inactive
MARK3, technical replicate 3: viability, normalised (%) = 90.7; activity call = inactive

Continued.
For PCK2, technical replicate 1, what does the deposit list?
viability, normalised (%): 96.9; activity call: inactive

Which result is listed for PCK2, technical replicate 2?
viability, normalised (%): 87.6; activity call: inactive

With PCK2, technical replicate 3, how do the results read?
viability, normalised (%): 77.4; activity call: active

Which result is listed for GRB10, technical replicate 1?
viability, normalised (%): 85; activity call: inactive

For GRB10, technical replicate 2, what was measured?
viability, normalised (%): 49.9; activity call: active

Which result is listed for GRB10, technical replicate 3?
viability, normalised (%): 89.6; activity call: inactive

Which result is listed for POLD4, technical replicate 1?
viability, normalised (%): 51.8; activity call: active

How did the screen score POLD4, technical replicate 2?
viability, normalised (%): 50.4; activity call: active

With POLD4, technical replicate 3, what does the deposit list?
viability, normalised (%): 50.4; activity call: active

With EP300, technical replicate 1, how do the results read?
viability, normalised (%): 57.5; activity call: active

Which result is listed for EP300, technical replicate 1?
viability, normalised (%): 72.9; activity call: active

Which result is listed for EP300, technical replicate 2?
viability, normalised (%): 67.6; activity call: active

For EP300, technical replicate 2, how do the results read?
viability, normalised (%): 78.3; activity call: active

For EP300, technical replicate 3, what was measured?
viability, normalised (%): 70; activity call: active

What is on record for EP300, technical replicate 3?
viability, normalised (%): 84.4; activity call: inactive
